No constants are given. Whether binding was seen depends on the method and setting. In cells and extracts the contact can be indirect. Binding can be weak; no strength is given.

The target in this test is enhancer of zeste homolog 2 (EZH2) (rat (endogenous in PC 12)). Description: co-IP; lysates of PC 12 cells, untreated or treated with Pb (lead acetate); lysis and IP buffer 50 mM Tris pH 7.4, 150 mM NaCl, 0.1 % CHAPS, 100 uM deferoxamine, 1 mM EDTA (IP buffer with 0.1 mg/mL BSA); 5 ug anti-H3K27me3, anti-EZH2 or unimmune IgG overnight at 4 C, protein A/G beads; Western blot with anti-EZH2, anti-Vav1, anti-EED, anti-H3K27me3.

B1: Vav1 (protein, UniProt P54100 1-843)
chain: MELWRQCTHWLIQCRVLPPSHRVTWEGAQVCELAQALRDGVLLCQLLNNLLPHAINLREVNLRPQMSQFLCLKNIRTFLSTCCEKFGLKRSELFEAFDLFDVQDFGKVIYTLSALSWTPIAQNKGIMPFPTEDSALGDEDIYSGLSDQIDDTAEEDEDLYDCVENEEAEGDEIYEDLMRSESVPTPPKMTEYDKRCCCLREIQQTEEKYTDTLGSIQQHFMKPLQRFLKPQDMETIFVNIEELLSVHTHFLKELKDALSGPGATMLYQVFIKYKERFLVYGRYCSQVESAIKHLDQVATAREDVQMKLEECSQRANNGRFTLRDLLMVPMQRVLKYHLLLQELVKHTQDTTEKENLRLALDAMRDLAQCVNEVKRDNETLRQITNFQLSIENLDQSLANYGRPKIDGELKITSVERRSKTDRYAFLLDKALLICKRRGDSYDLKASVNLHSFQVRDDSSGERDNKKWSHMFLLIEDQGAQGYELFFKTRELKKKWMEQFEMAISNIYPENATANGHDFQMFSFEETTSCKACQMLLRGTFYQGYRCYRCRAPAHKECLGRVPPCGRQDFSGTMKKDKLHRRAQDKKRNELGLPKMEVCQEYYGIPPPPGAFGPFLRLNPGDIVELTKAEAEHTWWEGRNTATNEVGWFPCNRVRPYVHGPPQDLSVHLWYAGPMERAGAEGILTNRSDGTYLVRQRVKDTAEFAISIKYNVEVKHIKIMTSEGLYRITEKKAFRGLPELVEFYQQNSLKDCFKSLDTTLQFPYKEPERRAINKPPVGSTKYFGTAKARYDFCARDRSELSLKEGDIIKILNKKGQQGWWRGEIYGRIGWFPSNYVEEDYSEYC
With B1, the binding result is given as “binds”.

These data come from paper PMC5689601.
